Data reported in PubChem BioAssay AID1259354 (Paczesny and Yang Labs, IUPUI and University of Michigan, 2018).
Out of some 78,000 compounds screened, about 1,800 (2.3%) were called active. This list was built around the results that the source calls inconclusive (neither active nor inactive); the mix of calls is not that of the screen. No stated cut-off is given here; in the data, active means inhibition above about 30%; inconclusive means mostly about 10% to 28%; inactive means weaker than that.

Sequences of proteins named here, by UniProt entry; tags and fusion partners are left off. A change or cut given only in a name is not applied to a line headed by its entry.
UniProt Q01638: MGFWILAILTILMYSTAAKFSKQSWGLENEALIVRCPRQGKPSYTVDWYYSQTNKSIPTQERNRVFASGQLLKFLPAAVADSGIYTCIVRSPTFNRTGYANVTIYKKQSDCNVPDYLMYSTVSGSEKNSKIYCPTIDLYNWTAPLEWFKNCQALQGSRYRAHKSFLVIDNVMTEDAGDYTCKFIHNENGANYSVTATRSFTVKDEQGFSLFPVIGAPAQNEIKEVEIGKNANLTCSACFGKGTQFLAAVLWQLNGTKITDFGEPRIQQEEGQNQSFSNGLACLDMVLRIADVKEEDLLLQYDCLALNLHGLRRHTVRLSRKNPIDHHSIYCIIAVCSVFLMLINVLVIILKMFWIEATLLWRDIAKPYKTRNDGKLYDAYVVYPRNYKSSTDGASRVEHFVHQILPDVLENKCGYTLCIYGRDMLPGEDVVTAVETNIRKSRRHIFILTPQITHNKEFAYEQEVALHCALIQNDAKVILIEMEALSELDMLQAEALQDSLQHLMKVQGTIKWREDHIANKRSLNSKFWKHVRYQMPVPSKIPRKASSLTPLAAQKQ

biological target: Interleukin-1 receptor-like 1 (Homo sapiens) (UniProt Q01638); assay: blocks human ST2 binding to IL-33, primary screen, biochemical, AlphaLISA (AID 1259354); details: AlphaLISA ST2-Fc/biotin-IL-33 interaction, 1 h; at 17 µM, active compounds read high

| Structure (SMILES) | inhibition |
| --- | --- |
| CC(C)N(CCC(N)=O)CC1CC=CCC1 (configuration not stated) | inconclusive: 15% |
| CCOC(=O)c1ccc(NC(=O)CN2C(=O)c3cccc4cccc2c34)cc1 | inconclusive: 14% |
| CCOC(=O)CSc1nc2c(sc3ccccc32)c(=O)n1CC1CCCO1 (configuration not stated) | inconclusive: 10% |
| Cc1ccc(C(=O)N[C@H]2CO[C@H]3[C@@H]2OC[C@@H]3Nc2nccc(-c3cccc(F)c3)n2)cc1 | inconclusive: 12% |
| CCCn1c(=O)[nH]c(=O)c2[nH]cnc21 | inactive |
| CC(C)C1CN(C(=O)Cc2ccccn2)CCC(=O)N1Cc1ccc(F)cc1 (configuration not stated) | inconclusive: 27% |
| COCc1cc(C)nc2sc(C(=O)Nc3ccc([N+](=O)[O-])cc3)c(N)c12 | inactive |
| Cc1cc(Cn2cc3c4c(cccc42)[C@H](CC(C)C)N[C@H](C(=O)NCCN2CCOCC2)C3)no1 | inconclusive: 19% |
| CC1CCN(S(=O)(=O)c2ccc(C(=O)O)cc2)CC1 | inconclusive: 10% |
| CC(C)(C)c1ccnc(N[C@H]2CO[C@H]3[C@@H]2OC[C@H]3OC(=O)Nc2cccc(C(F)(F)F)c2)n1 | inconclusive: 12% |
| Cc1cnc(C)c(N2CCN(C(=O)CC3C(=O)NCCN3CCc3ccccc3)CC2)n1 (configuration not stated) | inactive |
| CCOc1ccc(NC(=O)c2ccccc2F)cc1 | inactive |
| CC(C)Cc1nc(C2CC(=O)N(Cc3ccccn3)C2)n(-c2ccccn2)n1 (configuration not stated) | inactive |
| CCC(CC)C(=O)Nc1ccc([C@@H](O)[C@H]2COCC(=O)N2Cc2ccccc2F)cc1 | inconclusive: 20% |
| COc1cccc2c1NC(c1ccc(F)cc1)C1CC=CC21 (configuration not stated) | inconclusive: 28% |
| CC1=NC(Nc2nc(C)c3ccccc3n2)=NC(C)(C)C1 | active: 36% |
| O=[N+]([O-])c1cccc(CN2CCCCC2CCO)c1 (configuration not stated) | inactive |
| CCOc1ccc(-c2cn(-c3ccc(C)cc3)c(=O)[nH]2)cc1Cl | inactive |
| CCCCOc1ccccc1C1C(C(=O)OCC)=C(C)NC2=C1C(=O)C(C(=O)OC)C(C)C2 (configuration not stated) | inactive |
| Cc1nnc(Sc2cc(C(=O)NCCCN3CC(C)CC(C)C3)c3ccccc3n2)s1 (configuration not stated) | inconclusive: 22% |
| O=C(C1CC1)N1CCc2cc(S(=O)(=O)N3CCN(c4cccc(Cl)c4)CC3)ccc21 | inconclusive: 10% |
| CCCCNC(=O)CSc1ncnc2nc[nH]c12 | inactive |
| Cc1c(C(=O)O)sc2[nH]c(=O)n(-c3ccc(Cl)cc3)c(=O)c12 | inactive |

| Structure (SMILES) | inhibition |
| --- | --- |
| O=C(NCCCn1nnc2ccccc21)c1ccc2nc(C3CCCCC3)oc2c1 | inconclusive: 13% |
| CCN1CCN(C(c2cccs2)C(C)NS(=O)(=O)CC)CC1 (configuration not stated) | inconclusive: 19% |
| CNC(=O)C1CCC(Cn2c(=O)c3sccc3n(CC(=O)N3CCCC3)c2=O)CC1 (configuration not stated) | inactive |
| COC(=O)c1sccc1NC(=O)c1sc2ncn(C)c(=O)c2c1C | inconclusive: 13% |
| CC(C)c1cc(C(=O)N2CCC(n3nccc3NC(=O)C(C)(C)C)CC2)on1 | inactive |
| Cc1nc2ccccc2n1C1CC(=O)N(c2ccc(Br)cc2)C1=O (configuration not stated) | inconclusive: 12% |
| COc1ccc(C2C(C(N)=O)=C(C)Nc3nc(SCc4ccccc4F)nn32)cc1 (configuration not stated) | inactive |
| CCCN1CCC(N2CCN(S(=O)(=O)Cc3ccccc3)CC2)CC1 | inactive |
| CC(C)CN(C/C=C/c1ccccc1)C(=O)CC1CCOCC1 | inconclusive: 17% |
| O=C(COc1cccnc1)N1CCC(c2[nH]ncc2-c2cccc(F)c2)CC1 | inconclusive: 14% |
| CN1CCN(c2ncccc2CNC(=O)C2=Cc3ccccc3OC=C2)CC1 | inactive |
| CCOC(=O)C1CCN(C(=O)C2CCN(S(=O)(=O)c3cccc4cccnc34)CC2)CC1 | inconclusive: 12% |
| Cc1ccc(S(=O)(=O)NCC23C=CC(O2)C2C(=O)N(Cc4ccccc4)C(=O)C23)cc1 (configuration not stated) | inconclusive: 11% |
| CCOC(=O)c1[nH]c2ccc(F)cc2c1N=CN(C)C | inconclusive: 16% |
| Cc1nc(CN2CC(OCc3ccncc3)CN(Cc3ccc4c(c3)CCO4)CC2=O)cs1 (configuration not stated) | inconclusive: 11% |
| CC1(C)[C@@H]2CC[C@]1(CS(=O)(=O)Nc1ccc(F)cc1)C(=O)C2 | inactive |
| COc1ccc(CN2CCN(c3ncccn3)CC2)c(C)c1C | inconclusive: 12% |
| Cc1[nH]cnc1-c1nccn1CCc1nc2ccccc2[nH]1 | inactive |
| Cc1cc2c(Nc3ccc(C)c(Cl)c3)ncnc2s1 | inconclusive: 19% |
| COc1cc(N2C[C@@H]3[C@@H]4CC[C@@H](C4)[C@@H]3C2)nc(N)n1 | inconclusive: 12% |
| Nc1ccc(-c2nc3cc4sc(-c5ccc(N)cc5)nc4cc3s2)cc1 | inconclusive: 10% |
| CCOC(=O)c1c(C)oc2ccc(NS(=O)(=O)c3c(C)cc(C)cc3C)cc12 | inactive |
| Cc1cc(C)cc(NC(=O)CC(=O)NC(c2cccnc2)C(F)(F)F)c1 (configuration not stated) | inactive |

| Structure (SMILES) | inhibition |
| --- | --- |
| N#CC1=C(N)Oc2n[nH]c(-c3ccccc3)c2C1c1cccc(Br)c1 (configuration not stated) | inactive |
| O=C(COc1ccccc1[N+](=O)[O-])Nc1cccc(C(F)(F)F)c1 | inconclusive: 10% |
| O=C(Nc1nc2c(s1)CCCC2)c1ccc(S(=O)(=O)N2CCc3ccccc32)cc1 | inconclusive: 10% |
| COC(=O)C1=C(C)NC2=C(C(=O)CC(c3ccc(OC)cc3)C2)C1c1ccccc1 (configuration not stated) | inactive |
| COc1cc(/C=C2\C(=O)N(c3ccccc3)N=C2C)cc(OC)c1O | inconclusive: 12% |
| COc1ccc(N(C(=O)c2ccc(Br)cc2)C2C=CS(=O)(=O)C2)cc1 (configuration not stated) | inactive |
| COc1ccc(C(=O)C2Oc3ccccc3C3CC(c4ccccc4)=NN23)cc1 (configuration not stated) | inconclusive: 26% |
| Cc1ccoc1C(=O)N(C)Cc1ccc(-n2cccn2)cc1 | inactive |
| COC(=O)Cn1cnc2c(cnn2-c2ccc(Cl)cc2)c1=O | inactive |
| COc1cccc(SCC(=O)N2C[C@@H]3[C@H](C2)[C@H]2CC[C@@H]3O2)c1 | inconclusive: 15% |
| COC(=O)[C@@H]1C[C@@H](NC(=O)COc2cccnc2)CN1C | inactive |
| CC1CC(OCC(O)CN2CCN(c3ccccc3F)CC2)CC(C)(C)C1 (configuration not stated) | inactive |
| Oc1cccc(-c2nccn2C2CCN(Cc3ccccc3)CC2)c1 | inconclusive: 13% |
| O=C1NCC2(CCN(CC3(O)CCCN(CCc4ccccc4)C3=O)CC2)O1 (configuration not stated) | inconclusive: 14% |
| O=C1CCc2cc(S(=O)(=O)N3CCN(Cc4ccc5c(c4)OCO5)CC3)ccc2N1 | inconclusive: 11% |
| COc1cc(CN2CCC(CNS(C)(=O)=O)C2)cc(OC)c1 (configuration not stated) | inconclusive: 14% |
| COc1ccc(C(=O)c2cccc([N+](=O)[O-])c2)cc1 | inactive |
| O=C(c1ccc(N2CCSCC2)nc1)N1CCC(N2CCOCC2)CC1 | inactive |
| N#Cc1nc(-c2ccccc2)oc1N1CCCCC1 | inconclusive: 10% |
| C=CCN(CC=C)C(=O)c1ccccc1F | inconclusive: 17% |
| Cc1cc(C(=O)CN2CCC(C)CC2)c(C)n1-c1ccc(Cl)cc1 | inconclusive: 15% |
| OC[C@@H]1O[C@H](CN(Cc2ccccn2)Cc2ccccn2)[C@H](N2CCN(c3ccccn3)CC2)[C@@H]1O | inconclusive: 14% |
| CC(C)c1cc(CNC(=O)CSCc2ccccc2Cl)no1 | inactive |

| Structure (SMILES) | inhibition |
| --- | --- |
| COCCC(=O)N[C@H]1CC[C@]2(C)CCC([C@H](C)C(=O)N(CCOC)CCOC)[C@H](O)[C@H]2[C@@H]1C (some centres not stated) | inactive |
| Cc1c[nH]c(C(=O)N2CCC(=O)N(Cc3ccc(F)cc3)C(C(C)C)C2)c1 (configuration not stated) | inactive |
| CCC1(CC)CCN(C(=O)c2nnc(COC)o2)C1 | inactive |
| CSc1ccc(C2C(C(=O)Nc3ccc(F)cc3)=C(C)NC3=C2C(=O)CC(C)(C)C3)cc1 (configuration not stated) | inactive |
| O=c1oc2ccc(Cl)cc2cc1-c1nc(-c2ccccc2)cs1 | inconclusive: 17% |
| CCCOC(=O)c1ccc(NS(C)(=O)=O)cc1 | inactive |
| O=C1C2[C@H](C(=O)N1c1cccc(Br)c1)C1c3ccccc3C2(C(=O)O)c2ccccc21 (some centres not stated) | inactive |
| Cc1cc(C)nc(N=C(N)Nc2ccccc2C(F)(F)F)n1 | inactive |
| O=C(O[C@H]1[C@@H]2C=CO[C@@H](O[C@@H]3O[C@H](CO)[C@@H](O)[C@H](O)[C@H]3O)[C@@H]2[C@@]2(CO)O[C@@H]12)c1ccc(O)cc1 | inconclusive: 11% |
| CNC(=O)CC(C)N(C)Cc1cc2ccccc2n1C (configuration not stated) | inconclusive: 17% |
| O=C(Nc1cccc(F)c1)N[C@@H]1C=C(C(=O)N[C@H]2CCCNC2=O)C[C@@H](O)[C@@H]1O | inconclusive: 21% |
| O=[N+]([O-])c1ccc(CN2CCN(Cc3ccc4c(c3)OCO4)CC2)s1 | inconclusive: 22% |
| Cc1cc(C)c(-c2cc(C(N)=O)ccn2)c(C)c1 | inactive |
| COCCn1c(=O)c2c(nc3n2CCN3c2ccc(Br)cc2)n(C)c1=O | inconclusive: 11% |
| C1CCC(c2nc3c(c(NC4CC4)n2)CNC3)C1 | inconclusive: 12% |
| CN(C)c1ncnc2c1CCN(C(=O)c1cnc(Nc3ccccc3)nc1)C2 | inconclusive: 14% |
| Cc1ccc(OCC(O)CN2CCCCC2C)c(C)c1 (configuration not stated) | inactive |
| O=C(Cn1cnc2c(cnn2-c2ccc(Cl)cc2)c1=O)Nc1ccccc1 | inconclusive: 12% |
| Cc1ccn2c(Nc3ccc4c(c3)OCO4)c(-c3ccc(C)o3)nc2c1 | inconclusive: 14% |
| CCN(CC)C(=O)[C@@H](C)[C@@H]1CC[C@@]2(C)CC[C@H](NC(C)=O)[C@@H](C)[C@@H]2[C@H]1O | inconclusive: 18% |
| CC1=C(C(=O)Nc2ccccn2)C(c2ccc(Cl)cc2Cl)C2=C(CC(C)(C)CC2=O)N1 (configuration not stated) | inactive |
| O=C(c1cccc(Br)c1)N1CCN(c2ccccc2[N+](=O)[O-])CC1 | inconclusive: 12% |
| O=C1OC(c2ccccc2)OC(=O)C1=Cc1ccc(OCc2cccc(C(=O)O)c2)cc1 (configuration not stated) | inconclusive: 13% |

Entries above containing a furan ring, fused or not (3):

| Structure (SMILES) | inhibition |
| --- | --- |
| CCOC(=O)c1c(C)oc2ccc(NS(=O)(=O)c3c(C)cc(C)cc3C)cc12 | inactive |
| Cc1ccoc1C(=O)N(C)Cc1ccc(-n2cccn2)cc1 | inactive |
| Cc1ccn2c(Nc3ccc4c(c3)OCO4)c(-c3ccc(C)o3)nc2c1 | inconclusive: 14% |
